Our source for the fraction values is the supplement of paper PMC12542422.

Where a name gives a salt, the structure may show the parent alone. ± gives the standard deviation of the averaged measurements. The list shows a part of the results. Values are raw readings; no control value is given beside them.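 Across three biological replicates, HeLa cells were imaged for ribosome assembly using ENP1 staining (export block present or absent) or inducible tagged ribosomal protein reporters. Machine learning classified each cell's signal localization relative to DMSO controls. Hits exceeded the DMSO false-positive mean by five standard deviations and were then visually confirmed.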

This assay has as its system HeLa K (ENP1 immunofluorescence, +LMB). Nature of the assay: fraction of cells with nucleolar or nucleolar/nucleoplasmic ENP1 signal (MainHitrate); higher = more cells with nucleolar/nuclear readout signal (for ENP1 -LMB: less RNAPI inhibition; for +LMB ENP1 and RP reporters: stronger nuclear/nucleolar retention, i.e. ribosome biogenesis defect). The settings on record: concentration: 1 µM; treatment time: 6 h; ENP1 +LMB; leptomycin B: 20 nM, last 1.5 h.
With `Cc1cccc(Cc2c[nH]cn2)c1C` [Detomidine HCl], the fraction was 0.0628 ± 0.079.

In turn, `CCC1=C[C@H]2CN3CCc4c([nH]c5ccccc45)[C@](C(=O)OC)(C2)[C@H]13` [Catharanthine] had a fraction of 0.0475 ± 0.061.

Compound `Cc1cccc(C)c1NC(=O)CN1CCCC1=O` [Nefiracetam (Translon)] registered a fraction of 0.0799 ± 0.083.

For the compound `CCC(COC(=O)c1cc(OC)c(OC)c(OC)c1)(c1ccccc1)N(C)C` (configuration not stated) [Trimebutine], the fraction stood at 0.0498 ± 0.061.

On to `CC(O)(CS(=O)(=O)c1ccc(F)cc1)C(=O)Nc1ccc(C#N)c(C(F)(F)F)c1` (configuration not stated) [Bicalutamide (Casodex)], for which the fraction came to 0.0514 ± 0.036.

Compound `O=C(O[C@H]1C[C@H]2CC[C@@H](C1)[N+]21CCCC1)C(O)(c1ccccc1)c1ccccc1` [Trospium chloride (Sanctura)] yielded a fraction of 0.128 ± 0.19.

Consider `CNC(=O)Oc1ccc2c(c1)[C@]1(C)CCN(C)[C@@H]1N2C` [Physostigmine Salicylate], for which the fraction worked out at 0.229 ± 0.22.

Turning to `O=P1(N(CCCl)CCCl)NCCCO1` (configuration not stated) [Cyclophosphamide monohydrate], the fraction turned out to be 0.24 ± 0.38.

Compound `C=C1CC[C@@]2(O)[C@H]3Cc4ccc(O)c5c4[C@@]2(CCN3CC2CC2)[C@H]1O5` [Nalmefene HCl] came in with a fraction of 0.12 ± 0.15.

The compound `CCCCCCCCCCCCCCCC[n+]1ccccc1` [Cetylpyridinium Chloride] came in with a fraction of 0.0594 ± 0.071.

As to `CN1[C@@H]2CC(O)C[C@H]1[C@@H]1O[C@@H]12` (some centres not stated) [Scopine], the fraction came out at 0.128 ± 0.19.

On to `CC(C)=CC1C(C(=O)OCc2cccc(Oc3ccccc3)c2)C1(C)C` (configuration not stated) [Phenothrin], for which the fraction was determined as 0.117 ± 0.11.

As to `O=S(=O)(F)Cc1ccccc1` [PMSF (Phenylmethylsulfonyl Fluoride)], the fraction turned out to be 0.0965 ± 0.13.

In the case of `C[C@@H]1O[C@@H](O[C@H]2C[C@@H](O)[C@]3(CO)[C@H]4[C@H](O)C[C@]5(C)[C@@H](C6=CC(=O)OC6)CC[C@]5(O)[C@@H]4CC[C@]3(O)C2)[C@H](O)[C@H](O)[C@H]1O` [Ouabain], the fraction is 0.241 ± 0.33.

With `C[C@]12C/C(=C/O)C(=O)C[C@@H]1CC[C@@H]1[C@@H]2CC[C@@]2(C)[C@H]1CC[C@]2(C)O` [Oxymetholone], the fraction was 0.0388 ± 0.038.

`CC[N+]1(C)CCCC(OC(=O)C(O)(c2ccccc2)c2ccccc2)C1` (configuration not stated) [Pipenzolate Bromide]: the fraction amounted to 0.172 ± 0.24.

In turn, `CN1C(=O)CCS(=O)(=O)C1c1ccc(Cl)cc1` (configuration not stated) [Chlormezanone (Trancopal)] showed a fraction of 0.149 ± 0.22.

`C[N+]1(C)[C@@H]2C[C@@H](OC(=O)[C@H](CO)c3ccccc3)C[C@H]1[C@@H]1O[C@@H]12` [Methscopolamine (Pamine)] displayed a fraction of 0.119 ± 0.17.

`Cc1cc(C(C#N)c2ccc(Cl)cc2)c(Cl)cc1NC(=O)c1cc(I)cc(I)c1O` (configuration not stated) [Closantel]: the fraction is 0.082 ± 0.11.

In turn, `CC[C@H]1CN2CCc3cc(OC)c(OC)cc3[C@@H]2C[C@@H]1C[C@H]1NCCc2cc(OC)c(OC)cc21` [Emetine] came in with a fraction of 0.987 ± 0.011.

As for `CC(C)NCC(O)c1ccccc1Cl` (configuration not stated) [Clorprenaline HCL], the fraction came to 0.0907 ± 0.13.

In turn, `Cc1cc(O)ccc1Cl` [Chlorocresol] registered a fraction of 0.11 ± 0.16.

For the compound `NCC1(CC(=O)O)CCCCC1` [Gabapentin Hydrochloride], the fraction was 0.0763 ± 0.052.

With `C[C@]12CC[C@H]3[C@@H](CC[C@@]45O[C@@H]4C(O)=C(C#N)C[C@]35C)[C@@H]1CC[C@@H]2O` [Trilostane], the fraction is 0.0833 ± 0.057.

`CC(C)N(CCC(C(N)=O)(c1ccccc1)c1ccccn1)C(C)C` (configuration not stated) [Disopyramide Phosphate] displayed a fraction of 0.123 ± 0.18.

For `CN(C)C(=O)Oc1cccc([N+](C)(C)C)c1` [Neostigmine bromide (Prostigmin)], the fraction amounted to 0.0889 ± 0.11.

Compound `C[N+]1(C)CCOC(O)(c2ccc(-c3ccc(C4(O)C[N+](C)(C)CCO4)cc3)cc2)C1` (configuration not stated) [Hemicholinium Bromide] yielded a fraction of 0.104 ± 0.1.
